In PubChem BioAssay AID493014 (National Center for Advancing Translational Sciences (NCATS), 2011) one finds AC50 data, which are given here for 62 molecules.

The other results are listed elsewhere or left out. Shown are side measurements of this screen, not its main read-out; they come without a call. The list favours compounds with an active or inconclusive main result. Potencies come from curve fits of mixed quality, noted in brackets.

The assay in a line: qHTS Assay to Find Inhibitors of Chronic Active B-Cell Receptor Signaling. The settings on record: ABC-DLBCL IkBa-CBG/CBR reporter, luminescence ratio (green luciferase fused to IkBa over red control in TMD8 lymphoma cells), 4 h. Put shortly:
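Compounds up to 46 uM were incubated four hours with TMD8 cells whose green CBG68 luciferase is fused to IkappaBalpha; red CBR luminescence normalised the signal, and concentration-effect curves were fitted to fusion, red and ratio data.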
In general terms: In qHTS, concentration-response curves come from the screen itself.

Setting [1] is: measured here: CBR red luminescence, cell number.
The mark [2] stands for this setting: measured here: IkBa-CBG green luminescence.

A word on the AC50: it is the concentration at which the activity in the assay is half-maximal.

Regarding `Cn1c(=O)c2c(ncn2CC(=O)Nc2cccc(S(=O)(=O)Nc3ccccc3F)c2)n(C)c1=O`, the AC50 under setting [1] was 12.6 µM [falling, partial curve].

Take `CN(C)c1nc(-c2ccccc2)nc(-c2ccc(Cl)cc2)c1C#N`: under setting [1], the AC50 is 3.26 µM [falling, partial curve, poor fit]. Still for that read-out and setting: the value for `O=C(CNC(=O)c1ccccc1)c1ccccc1` was 9.2 µM [falling, partial curve]; that for `CCOc1ccccc1CNS(=O)(=O)c1cc(-c2cc(C)no2)ccc1C` was 10 µM [falling, partial curve, poor fit]; that for `COc1ccc(S(=O)(=O)Nc2cccc(NC(C)=O)c2)cc1` was 25.9 µM [falling, single point]. Same read-out and setting: with `COC(=O)c1c(NC(=O)c2ccc([N+](=O)[O-])o2)sc2c1CCN(C(C)C)C2` the figure was 35.5 µM [falling, single point]; with `Cc1ccc(N2C(=O)SC(Cc3ccccc3)C2=O)cc1` (centres undefined), 0.1 µM [rising, full curve, poor fit].

For `CC(C)CCNC(=O)CCCOc1cc(=O)n(C)c2ccccc12`, the concentration at half-maximal activity (AC50) under setting [1] was 12.6 µM [rising, single point]. On the same count and under the same terms, with `O=C(c1ccc2ccccc2c1)C1CCCN(C(=O)c2noc3c2CCCC3)C1` (centres undefined) the figure was 28.2 µM [falling, single point]; with `CN(C)/C=C/C(=O)c1ccc2noc(-c3cccc(F)c3)c2c1`, 11.2 µM [falling, partial curve, poor fit]; with `CC(/C=N/NC(=O)COc1ccccc1C)=N\NC(=O)COc1ccccc1C`, 2.82 µM [falling, full curve]. Same read-out and setting: with `CCn1c(=O)cc(SCC(=O)N2CCN(C3CCCCC3)CC2)c2ccccc21` the figure was 7.31 µM [rising, partial curve, poor fit]; with `COc1ccc(CCn2c(=O)[nH]c3cc(C(=O)NCCN4CCOCC4)ccc3c2=O)cc1OC`, 23.1 µM [rising, single point].

On to `CN(Cc1ccccc1F)c1nc(-c2cccs2)nc2ccccc12`, for which, under setting [1], the AC50 is 3.66 µM [rising, partial curve]. On the same count and under the same terms, the value for `Cc1nc(C)c(-c2csc(NCc3ccccc3)n2)s1` was 20 µM [falling, single point]; that for `COc1ccc(Cc2nnc(Nc3ccccc3OC)[nH]c2=O)cc1` was 3.98 µM [falling, full curve]. Consider `Cc1c(C2(c3c(C)n(C)n(-c4ccccc4)c3=O)C(=O)Nc3ccc(F)cc32)c(=O)n(-c2ccccc2)n1C`, for which the AC50 is 29.1 µM [rising, single point] under setting [1] and 32.6 µM [falling, partial curve, poor fit] under setting [2]. In the case of `O=C(NC1CCN(Cc2ccc(Cl)cc2)CC1)c1cn(-c2ccccc2)nc1-c1cccnc1`, the half-maximal activity concentration (AC50) under setting [1] was 23.1 µM [rising, partial curve]. Same read-out and setting: with `Cc1ncc([N+](=O)[O-])n1CCOC(=O)Nc1ccc([N+](=O)[O-])cc1` the figure was 7.31 µM [rising, partial curve, poor fit]; with `Cc1ccc(Cc2nnc3n(-c4ccccc4)nc(C(=O)c4ccccc4)n3c2=O)cc1`, 3.66 µM [falling, single point]; with `COC(=O)c1cc2sccc2n1Cc1ccc(F)cc1`, 17.8 µM [rising, partial curve, poor fit]. On the same count and under the same terms, the value for `CC(OC(=O)C1CCN(S(=O)(=O)c2ccc(Cl)cc2)CC1)C(=O)N1CCc2ccccc21` (centres undefined) was 6.51 µM [rising, single point]; that for `Cc1[nH]nc2c1C1(C(=O)Nc3ccc([N+](=O)[O-])cc31)C(C#N)=C(N)O2` (centres undefined) was 2.91 µM [rising, partial curve, poor fit]; that for `O=C(CCn1nc(-c2ccc(Cl)cc2)ccc1=O)N1CCN(c2ccccn2)CC1` was 2.31 µM [rising, partial curve, poor fit].

In the case of `CN1CCN(c2nc(-c3cccs3)nc3ccccc23)CC1`, the half-maximal activity concentration (AC50) under setting [1] is 13 µM [falling, partial curve, poor fit].

As for `Cn1cccc1C(=O)OCC(=O)Nc1sccc1C#N`, the concentration at half-maximal activity (AC50) under setting [1] is 13 µM [falling, partial curve]. Consider `Cc1nc(NC(=O)c2cc3c(C)nn(-c4ccccc4)c3s2)sc1C(=O)Nc1ccccc1`, for which, under setting [1], the AC50 was 8.2 µM [falling, partial curve, poor fit].

For the molecule `CCC(C)NCCOCCOc1ccc(Cl)c2ccccc12` (centres undefined), the AC50 under setting [1] was 5.62 µM [falling, partial curve].

In the case of `O=C(NCc1ccco1)c1cc(-c2cccnc2)nc2ccccc12`, the AC50 under setting [1] is 13 µM [falling, partial curve, poor fit].

With `O=C1C=CC(=C(c2ccc(O)cc2)c2ccc(O)cc2)C=C1`, under setting [2], the AC50 was 16.4 µM [falling, partial curve, poor fit].

For `Cc1cccc(C(=O)N2CCN(CCNC(=O)C(=O)Nc3ccc(F)cc3)CC2)c1`, under setting [1], the AC50 was 12.6 µM [falling, partial curve, poor fit]. On the same count and under the same terms, with `O=[N+]([O-])c1ccc2c(OCc3nnc(-c4ccccc4Br)o3)ncnc2c1` the figure was 22.4 µM [falling, partial curve, poor fit]. For the molecule `C/C(=N\NC(=O)c1cccc(Cl)c1)C1C(=O)c2ccccc2C1=O`, the half-maximal activity concentration (AC50) under setting [1] was 5.8 µM [falling, partial curve, poor fit].

Regarding `Cc1ccc(C)c(NS(=O)(=O)c2ccc(-c3cnc(C4CC4)o3)cc2)c1`, the concentration at half-maximal activity (AC50) is 1 µM [rising, full curve] under setting [1] and 1.78 µM [falling, full curve] under setting [2]. Consider `CC(C)Cn1c(SCC(=O)N2CCN(S(=O)(=O)c3ccccc3)CC2)nc2ccccc21`, for which the AC50 under setting [1] was 35.5 µM [falling, single point]. Still for that read-out and setting: with `COc1cccc2cc(C(=O)C3=C(O)C(=O)N(CCN4CCOCC4)C3c3ccc(C(C)(C)C)cc3)oc12` (centres undefined) the figure was 14.1 µM [falling, single point]; with `Cc1cccc(N2CCN(C(=O)c3ccc4ncsc4c3)CC2)c1C`, 7.31 µM [falling, partial curve, poor fit]; with `CCCCn1c(SCC(=O)NCCOC)nc2ccc(N3CCOCC3)cc2c1=O`, 35.5 µM [falling, partial curve, poor fit]. The same measure, in the same setting: with `CCOC(=O)Cn1c(=O)c2c(nc(N3CCCCC3)n2Cc2ccccc2)n(C)c1=O` the figure was 22.4 µM [falling, single point].

With `O=C(CSc1nnc(-c2cccc(F)c2)o1)Nc1nncs1`, the AC50 under setting [1] was 11.2 µM [falling, single point]. With `CC(C)Oc1cccc(C(=O)NC2=NCCS2)c1`, the concentration at half-maximal activity (AC50) under setting [1] is 0.282 µM [rising, full curve, poor fit]. Same read-out and setting: the value for `Cc1cccc(CC(Cc2nc3ccccc3[nH]2)c2nc3ccccc3[nH]2)c1` (centres undefined) was 29.1 µM [falling, single point]. The same measure, in the same setting: with `O=C(CSc1c2c(nc3ccc(Cl)cc13)CCCC2)NCc1ccco1` the figure was 16.4 µM [falling, partial curve, poor fit]; with `O=C(CSc1nnc(-c2ccc(O)cc2)o1)Nc1ccccc1`, 11.2 µM [falling, partial curve]. Still for that read-out and setting: with `Cc1ccc(C(=O)N/N=C/C=C/c2ccccc2)o1` the figure was 5.62 µM [falling, partial curve]; with `Cc1cc(C(=O)NCC(=O)OC(C(=O)Nc2cc(C(F)(F)F)ccc2Cl)c2ccccc2)ccc1[N+](=O)[O-]` (centres undefined), 3.66 µM [rising, full curve, poor fit]. Take `O=C(NN=Cc1ccccc1Cl)c1ccc(-n2cnnn2)cc1`: the concentration at half-maximal activity (AC50) under setting [1] was 20.6 µM [falling, partial curve]. Still for that read-out and setting: with `Cn1c(SCC(=O)N2CCCc3ccccc32)nc2cccnc21` the figure was 1.46 µM [falling, full curve, poor fit]; with `CC1CCCCN1C(=O)c1cc(-c2ccc(Cl)c(Cl)c2)on1` (centres undefined), 0.794 µM [rising, partial curve, poor fit]. The same measure, in the same setting: with `Cc1cc(NC(=O)c2ccccc2)nc(C)n1` the figure was 1 µM [falling, full curve]. In the case of `Cc1ccc(C2=NN(Cc3nnc(-c4ccccc4)o3)C(=O)SC2)cc1`, under setting [1], the AC50 was 16.4 µM [falling, partial curve]. On the same count and under the same terms, the value for `CS(=O)(=O)Nc1nc2n(n1)C(c1ccc(F)cc1)CC(c1ccccc1)N2` (centres undefined) was 1.26 µM [rising, full curve]; that for `O=C1SC(SCc2ccccc2Cl)=N/C1=C\c1ccc(C(=O)O)cc1` was 22.4 µM [falling, partial curve].

As to `Oc1ccc(-c2nc3cnccn3c2Nc2ccc3c(c2)OCCO3)cc1`, the AC50 under setting [2] is 10 µM [falling, partial curve]. On to `Cc1cccc(N2C(=O)C(Cl)=C(Nc3c(C)n(C)n(-c4ccccc4)c3=O)C2=O)c1C`, for which the concentration at half-maximal activity (AC50) under setting [1] is 32.6 µM [falling, single point]. Same read-out and setting: the value for `Cc1cc(C)c(OCC(=O)Nc2nnc(C3CC3)s2)c(C)c1` was 18.4 µM [falling, single point]. Consider `Cc1cccc(-n2ncc3c(NCc4ccc5c(c4)OCO5)ncnc32)c1`, for which the half-maximal activity concentration (AC50) under setting [1] was 5.8 µM [falling, partial curve]. Same read-out and setting: the value for `CCCn1c(N)c(C(c2ccc(C(=O)OC)cc2)N2CCN(c3ccccc3)CC2)c(=O)[nH]c1=O` (centres undefined) was 25.1 µM [falling, single point]. With `COc1ccccc1/C=C/C(=O)Nc1nc(N)n(-c2ccccc2)n1`, under setting [1], the AC50 was 2.82 µM [falling, full curve, poor fit]. The same measure, in the same setting: the value for `COc1ccc(CN(C)CC(=O)NC(=O)Nc2ccccc2F)cc1` was 6.51 µM [rising, partial curve]; that for `C=CCOC(=O)/C=C/C(=O)NC(N)=O` was 35.5 µM [falling, single point]. The same measure, in the same setting: with `O=C(c1ccc(Cn2c(=S)[nH]c3ccc(Br)cc3c2=O)cc1)N1CCN(C2CCCCC2)CC1` the figure was 0.282 µM [falling, full curve, poor fit].
